{"source": "patent US20260284208A1", "about": "“SYSTEM” (Oxford University Innovation Limited, priority 2023, published 2026)", "test_system": "library of 8,380 IKZF3 degrons (ZF-eGFP/mCherry reporter) in Jurkat cells", "assay": "Pooled library screen (FACS, NGS, limma voom LogFC of positive vs negative read counts)", "type": "cell-based, human", "method": "A library of 8,380 IKZF3 degrons was cloned into pLVX-Sprout to create the eGFP/mCherry protein degradation reporter plasmid pool. A lentivirus pool was then generated using the Lenti-X lentiviral vector production method.\nJurkat cells were transduced at a multiplicity of infection of <0.3 with the lentivirus vector library in order to maximise the number of cells with a single integration. Transductions were carried out in 6 well TC-treated cell culture dishes (Falcon) with 3×10^6 cells per well. Cells were incubated for 2 days at 37° C. and 5% CO2 before the supernatant was removed and replaced with fresh media. 6 days post-transduction, mCherry+ cells were isolated via FACS using the FACS Aria Fusion (BD) in a buffer containing PBS (Gibco), 2 mM EDTA (Gibco), 25 mM HEPES (Sigma) and 1% BSA (Sigma). 8 days later, cells were treated with DMSO or a thalidomide analog for 18 hours at 37° C. and 5% CO2. mCherry+GFPlow and NOT(mCherry+GFPlow) cells were sorted by FACS using the FACS Aria Fusion (BD). DMSO treated cells were used to set the mCherry+GFPlow gate and dead cells were excluded from sorting by staining cells with 1 μg/mL DAPI (ThermoFisher). gDNA was isolated using the Maxwell RSC 48 (Promega). gDNA from cells that were unsorted and untreated were also isolated to determine the library representation on the day of compound treatment. Throughout the screen >600× coverage of the library was maintained. 3 biological replicates were carried out with a new transduction taking place each time.\nA two-step PCR was used where the first PCR (PCR1) amplified the integrated degron sequence from gDNA and the second PCR (PCR2) added Illumina adaptors and barcodes to permit multiplexing. See Supp F for PCR1 and PCR2 primers. Q5 Hot Start High-Fidelity 2× Master Mix (New England Biolabs) was used for both PCRs. Sufficient gDNA was amplified in PCR1 in order to maintain >600× coverage and amplicons were purified using solid phase reversible immobilization (SPRI) beads (Beckman Coulter). Purified PCR1 products were analysed on the Tapestation 4200 (Agilent) to confirm purity prior to proceeding to PCR2. Sufficient PCR1 product was amplified in PCR2 in order to maintain >600× coverage and amplicons were run on a 2% agarose TAE gel. Target bands were excised and purified using the NucleoSpin Gel and PCR Clean-up Kit (Machery Nagel). Amplicons were analysed on the Tapestation 4200 and quantified using Qubit dsDNA HS kit (ThermoFisher). PCR products were pooled and sequenced as paired-reads on the NovaSeq (Illumina) using a SP2 200 cycles kit (Illumina).\nCount distributions, percentage of read mapping, library coverage and replicate correlation per sample were assessed for QC purposes.\nTo carry out the library screen, we used the same plasmid construct as in our earlier flow cytometry assays, but pooling all 8,380 mutants together into one Jurkat population, ensuring a copy number of one plasmid per cell (FIG. 4B). […] These GFP-negative cells were then separated from the remaining GFP-positive population using fluorescence activated cell sorting (FACS). These two populations were then sequenced and the relative abundance of every mutant in both populations compared to provide a log FC value for each mutant sequence. This value indicated how frequently a sequence is observed in the GFP-negative population relative to the GFP-positive population, and therefore how effective a degron it is for that particular IMID compound.", "note": "Further values from the same series stand in other lists."}
{"smiles": "O=C1CCC(N2C(=O)c3ccc(N4CCOCC4)cc3C2=O)C(=O)N1", "note": "(stereo not shown) [B03]", "values": [{"measurement": "B03_logFC", "setting": "Degron-ID 7691, SEQ ID NO 4305, 46L_47F_49E_50I_52G_53F_54N_55C_67L_", "value": 2.211}, {"measurement": "B03_logFC", "setting": "Degron-ID 7720, SEQ ID NO 4351, 46L_47H_49E_50I_52G_53F_54A_55C_67L_", "value": 2.119}, {"measurement": "B03_logFC", "setting": "Degron-ID 7733, SEQ ID NO 4266, 46L_47H_49E_50I_52G_53F_54Q_55C_67L_", "value": 2.266}, {"measurement": "B03_logFC", "setting": "Degron-ID 7735, SEQ ID NO 3724, 46L_47H_49E_50I_52G_53F_54S_55C_67L_", "value": 3.16}, {"measurement": "B03_logFC", "setting": "Degron-ID 7736, SEQ ID NO 3845, 46L_47H_49E_50I_52G_53F_54T_55C_67L", "value": 2.93}, {"measurement": "B03_logFC", "setting": "Degron-ID 7740, SEQ ID NO 4291, 46L_47I_49E_50I_52G_53F_54A_55C_67L_", "value": 2.237}, {"measurement": "B03_logFC", "setting": "Degron-ID 7753, SEQ ID NO 4248, 46L_47I_49E_50I_52G_53F_54Q_55C_67L_", "value": 2.3}, {"measurement": "B03_logFC", "setting": "Degron-ID 7754, SEQ ID NO 4268, 46L_47I_49E_50I_52G_53F_54R_55C_67L_", "value": 2.264}, {"measurement": "B03_logFC", "setting": "Degron-ID 7755, SEQ ID NO 3793, 46L_47I_49E_50I_52G_53F_54S_55C_67L_", "value": 3.024}, {"measurement": "B03_logFC", "setting": "Degron-ID 7756, SEQ ID NO 4289, 46L_47I_49E_50I_52G_53F_54T_55C_67L_", "value": 2.238}, {"measurement": "B03_logFC", "setting": "Degron-ID 7815, SEQ ID NO 4345, 46L_47M_49E_50I_52G_53F_54S_55C_67L_", "value": 2.135}, {"measurement": "B03_logFC", "setting": "Degron-ID 7880, SEQ ID NO 4393, 46L_47S_49E_50I_52G_53F_54A_55C_67L_", "value": 2.047}, {"measurement": "B03_logFC", "setting": "Degron-ID 7896, SEQ ID NO 3891, 46L_47S_49E_50I_52G_53F_54T_55C_67L", "value": 2.866}, {"measurement": "B03_logFC", "setting": "Degron-ID 7914, SEQ ID NO 4360, 46L_47T_49E_50I_52G_53F_54R_55C_67L_", "value": 2.102}, {"measurement": "B03_logFC", "setting": "Degron-ID 7915, SEQ ID NO 3700, 46L_47T_49E_50I_52G_53F_54S_55C_67L_", "value": 3.216}, {"measurement": "B03_logFC", "setting": "Degron-ID 7916, SEQ ID NO 3874, 46L_47T_49E_50I_52G_53F_54T_55C_67L", "value": 2.891}, {"measurement": "B03_logFC", "setting": "Degron-ID 7935, SEQ ID NO 3758, 46L_47V_49E_50I_52G_53F_54S_55C_67L_", "value": 3.113}, {"measurement": "B03_logFC", "setting": "Degron-ID 7940, SEQ ID NO 3694, 46L_47W_49E_50I_52G_53F_54A_55C_67L_", "value": 3.236}, {"measurement": "B03_logFC", "setting": "Degron-ID 7941, SEQ ID NO 3664, 46L_47W_49E_50I_52G_53F_54C_55C_67L_", "value": 3.308}, {"measurement": "B03_logFC", "setting": "Degron-ID 7948, SEQ ID NO 3688, 46L_47W_49E_50I_52G_53F_54K_55C_67L_", "value": 3.248}, {"measurement": "B03_logFC", "setting": "Degron-ID 7950, SEQ ID NO 3706, 46L_47W_49E_50I_52G_53F_54M_55C_67L_", "value": 3.202}, {"measurement": "B03_logFC", "setting": "Degron-ID 7957, SEQ ID NO 3719, 46L_47W_49E_50I_52G_53F_54V_55C_67L_", "value": 3.17}, {"measurement": "B03_logFC", "setting": "Degron-ID 7961, SEQ ID NO 3678, 46L_47Y_49E_50I_52G_53F_54C_55C_67L_", "value": 3.282}, {"measurement": "B03_logFC", "setting": "Degron-ID 7963, SEQ ID NO 4327, 46L_47Y_49E_50I_52G_53F_54E_55C_67L_", "value": 2.158}, {"measurement": "B03_logFC", "setting": "Degron-ID 7965, SEQ ID NO 4331, 46L_47Y_49E_50I_52G_53F_54G_55C_67L_", "value": 2.155}, {"measurement": "B03_logFC", "setting": "Degron-ID 7967, SEQ ID NO 3685, 46L_47Y_49E_50I_52G_53F_54I_55C_67L_", "value": 3.256}, {"measurement": "B03_logFC", "setting": "Degron-ID 7968, SEQ ID NO 3728, 46L_47Y_49E_50I_52G_53F_54K_55C_67L_", "value": 3.157}, {"measurement": "B03_logFC", "setting": "Degron-ID 7970, SEQ ID NO 3682, 46L_47Y_49E_50I_52G_53F_54M_55C_67L_", "value": 3.269}, {"measurement": "B03_logFC", "setting": "Degron-ID 7977, SEQ ID NO 3671, 46L_47Y_49E_50I_52G_53F_54V_55C_67L_", "value": 3.292}, {"measurement": "B03_logFC", "setting": "degron 1020 (SEQ ID NO 3523) 46F_47F_49E_50I_52G_53A_54A_55F_67L", "value": 3.645}, {"measurement": "B03_logFC", "setting": "degron 1021 (SEQ ID NO 3469) 46F_47F_49E_50I_52G_53A_54C_55F_67L", "value": 3.835}, {"measurement": "B03_logFC", "setting": "degron 1027 (SEQ ID NO 3539) 46F_47F_49E_50I_52G_53A_54I_55F_67L", "value": 3.607}, {"measurement": "B03_logFC", "setting": "degron 1028 (SEQ ID NO 3519) 46F_47F_49E_50I_52G_53A_54K_55F_67L", "value": 3.654}, {"measurement": "B03_logFC", "setting": "degron 1031 (SEQ ID NO 3529) 46F_47F_49E_50I_52G_53A_54N_55F_67L", "value": 3.628}, {"measurement": "B03_logFC", "setting": "degron 1033 (SEQ ID NO 3511) 46F_47F_49E_50I_52G_53A_54Q_55F_67L", "value": 3.67}, {"measurement": "B03_logFC", "setting": "degron 1034 (SEQ ID NO 3515) 46F_47F_49E_50I_52G_53A_54R_55F_67L", "value": 3.661}, {"measurement": "B03_logFC", "setting": "degron 1035 (SEQ ID NO 3492) 46F_47F_49E_50I_52G_53A_54S_55F_67L", "value": 3.722}, {"measurement": "B03_logFC", "setting": "degron 1036 (SEQ ID NO 3474) 46F_47F_49E_50I_52G_53A_54T_55F_67L", "value": 3.804}, {"measurement": "B03_logFC", "setting": "degron 1037 (SEQ ID NO 3486) 46F_47F_49E_50I_52G_53A_54V_55F_67L", "value": 3.757}, {"measurement": "B03_logFC", "setting": "degron 1060 (SEQ ID NO 3635) 46F_47F_49E_50V_52G_53A_54A_55F_67L", "value": 3.389}, {"measurement": "B03_logFC", "setting": "degron 1061 (SEQ ID NO 3578) 46F_47F_49E_50V_52G_53A_54C_55F_67L", "value": 3.514}, {"measurement": "B03_logFC", "setting": "degron 1068 (SEQ ID NO 3628) 46F_47F_49E_50V_52G_53A_54K_55F_67L", "value": 3.418}, {"measurement": "B03_logFC", "setting": "degron 1071 (SEQ ID NO 3613) 46F_47F_49E_50V_52G_53A_54N_55F_67L", "value": 3.445}]}
